Experimental data published in PMC9150345.
These are yes or no findings as the source states them, for the method shown. In cells and extracts the contact can be indirect. Some entries that bind do so weakly or less than the wild type. Tags and fused reporters may be left off the sequences shown.

Protein sequences, listed by entry. Tags and fused reporters are not part of them.
UniProt P20226: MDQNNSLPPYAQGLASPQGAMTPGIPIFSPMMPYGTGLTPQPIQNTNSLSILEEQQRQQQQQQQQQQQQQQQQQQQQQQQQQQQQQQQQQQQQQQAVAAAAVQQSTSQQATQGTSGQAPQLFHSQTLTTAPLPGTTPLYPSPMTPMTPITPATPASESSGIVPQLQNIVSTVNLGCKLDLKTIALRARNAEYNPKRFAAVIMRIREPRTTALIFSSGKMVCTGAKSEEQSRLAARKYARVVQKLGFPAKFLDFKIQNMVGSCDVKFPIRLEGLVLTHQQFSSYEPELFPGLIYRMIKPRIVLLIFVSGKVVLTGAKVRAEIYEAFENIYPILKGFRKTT

Biological target: TATA-binding protein (hTBP), fused to the N-terminal fragment of Venus (human) (UniProt P20226)
Experiment: split reporter; BiFC assays of TBP with TFIIEβ (unpublished results)

- binding: binds weakly
B1: TFIIEβ, BiFC fusion (unpublished results) (protein, UniProt O96881 1-292)
chain: MDPALLREREAFKKRAMATPTVEKKSKPDRPAPPPPSDDSRRKMRPPNAPRLDATTYKTMSGSSQYRFGVLAKIVKFMRTRHQDGDDHPLTIDEILDETNQLDIGQSVKNWLASEALHNNPKVEASPCGTKFSFKPVYKIKDGKTLMRLLKQHDLKGLGGILLDDVQESLPHCEKVLKNRSAEILFVVRPIDKKKILFYNDRTANFSVDDEFQKLWRSATVDAMDDAKIDEYLEKQGIRSMQDHGLKKAIPKRKKAANKKRQFKKPRDNEHLADVLEVYEDNTLTLKGVNPT
